{"source": "patent US7074426B2", "about": "“Methods and drug delivery systems for the treatment of orofacial diseases” (priority 2002, dated 2006)", "origin": "cited, not measured here", "test_system": "alkaline phosphotase", "conditions": "regenerating human periodontal cells; Kuru et al. 1999", "note": "For at least one compound, name, drawing or mass did not settle the structure."}
{"smiles": "C[C@@H]1C[C@H]2[C@@H]3CCC4=CC(=O)C=C[C@]4(C)[C@@]3(F)[C@@H](O)C[C@]2(C)[C@@]1(O)C(=O)CO", "note": "[Dexamethasone]", "values": [{"measurement": "alkaline phosphotase activity", "value": "increase or up-regulate"}]}
